# From PubChem BioAssay AID590 (National Center for Advancing Translational Sciences (NCATS), 2007)
# About 6,500 (11%) of roughly 59,000 compounds were called active. The shares of active, inactive and inconclusive entries below differ from those in the screen. Rule as the data show it: active = max dye-equivalent concentration above about 10 nM; inconclusive = mostly about 1.1 nM to 9.6 nM; inactive = weaker than that.
# Experiment: qHTS Assay for Spectroscopic Profiling in A350 Spectral Region
# Conditions: Compound autofluorescence, 340/450 nm, Alexa 350 dye-equivalents; stronger effect = higher value
row,SMILES,max dye-equivalent concentration
1,CC(=O)Nc1c(C(=O)O)oc2ccc(Cl)cc12,inactive
2,Cc1ccccc1N1CCN(S(=O)(=O)C[C@@]23CC[C@H](C[C@H]2NC(=O)[C@@H](N)CCS(C)(=O)=O)C3(C)C)CC1,inactive
3,CCOC(=O)CSc1nc2ccccc2c(=O)n1CC1CCC(C(=O)NCc2ccco2)CC1 (configuration not stated),inconclusive: 1.6 nM
4,CCC1CCCCN1C(=O)Cn1c(=O)oc2ccccc21 (configuration not stated),inactive
5,CCCCCOc1ccc(/C=c2\sc3ncnn3c2=O)cc1,inconclusive: 1.9 nM
6,CCc1c(C)nc2c(C#N)c[nH]n2c1=O,inconclusive: 1.4 nM
7,CCCOc1c(OC)cccc1C1CC(=O)Nc2cc3c(cc21)OCCO3 (configuration not stated),inactive
8,CC1(C)Cc2c(C#N)c(NCCN3CCOCC3)nc(-c3ccco3)c2CO1,active: 180 nM
9,COc1ccc(N=Cc2c(O)[nH]c3ccccc23)cc1OC,inconclusive: 4.1 nM
10,COC(=O)c1ccccc1NC(=O)c1cccc(NC(=O)c2ccc(Br)o2)c1C,inactive
11,COc1ccc(OCc2nn3c(-c4ccco4)nnc3s2)cc1,inconclusive: 1.1 nM
12,Cc1cc(C)n(-c2ccc(C(=O)C(C#N)c3nc4ccccc4n3C)cc2)n1 (configuration not stated),active: 13 nM
13,O=C(c1cccc(F)c1)N1CCC2(CCCN(Cc3ccncc3)C2)CC1,inactive
14,CCn1c(SCc2ccc(C)cc2)nnc1-c1cnccn1,inconclusive: 1.8 nM
15,CCOc1ccc(S(=O)(=O)Nc2cccc(C(=O)N3CCN(c4ccc(OC)cc4)CC3)c2)cc1,inconclusive: 1.7 nM
16,Cc1c(/C(O)=C2\C(=O)C(=O)N(CCCN(C)C)C2c2ccccc2)cnn1-c1ccccc1 (configuration not stated),inconclusive: 4.8 nM
17,O=C(NCc1ccccc1)c1c(O)c2cccc3c2n(c1=O)CCC3,inconclusive: 2.8 nM
18,Cc1c(NC(=O)CSc2nnc3sc4ccccc4n23)c(=O)n(-c2ccccc2)n1C,inconclusive: 3.3 nM
19,CCOC(=O)c1cc2c(=O)n3cccc(C)c3nc2n(CCc2ccc(OC)c(OC)c2)c1=N,inconclusive: 3.3 nM
20,O=C(COc1ccc(S(=O)(=O)NCc2ccccc2)cc1Cl)N1CCOCC1,inconclusive: 2.2 nM
21,COc1ccc2nc3cc(Cl)ccc3c(Nc3ccc(O)c(CN4CCN(C)CC4)c3)c2c1,active: 50 nM
22,Cc1cc(C)n(-c2nc3ccccc3nc2Nc2ccc3[nH]c(=O)[nH]c3c2)n1,inconclusive: 1.2 nM

row,SMILES,max dye-equivalent concentration
1,COc1cc(Cn2c(C(=O)O)cc3sccc32)cc(OC)c1OC,inactive
2,COc1ccc(C2CCN(Cc3cccnc3)CC2O)cc1 (configuration not stated),inconclusive: 3.7 nM
3,Cc1ccc(C2=N/C(=C/N3CCOCC3)C(=O)O2)cc1,inconclusive: 2.8 nM
4,CC(Sc1nc(-c2ccccc2)cc(C(F)(F)F)n1)C(=O)N1CCC(C(N)=O)CC1 (configuration not stated),inactive
5,CC(C)CCn1nnnc1C(c1ccccc1)N1CCN(C)CC1 (configuration not stated),inconclusive: 1.1 nM
6,Cn1c(=O)cc(SCC(=O)NCC2CCCO2)c2ccccc21 (configuration not stated),inconclusive: 1.5 nM
7,COc1cccc(C2/C(=C(/O)c3cnn(-c4ccccc4)c3C)C(=O)C(=O)N2CCN(C)C)c1 (configuration not stated),inconclusive: 1.2 nM
8,COc1ccc(C(=O)N2CCC3(CCCN(c4ccc(-c5ccccc5)cc4)C3)CC2)cc1,inactive
9,CCOc1ccccc1NC(=O)CCC(=O)Nc1ccc2nc(N3CCN(C)CC3)cc(C)c2c1,active: 260 nM
10,CCN(CC)C(=O)c1c[nH]c2ccc(S(=O)(=O)Nc3cc(C)cc(C)c3)cc2c1=O,active: 14 nM
11,Cn1c(NC(=O)c2cc(-c3ccc4c(c3)OCO4)nc3ccccc23)cc(=O)n(C)c1=O,active: 36 nM
12,Cc1[nH]nc2c1C1(C(=O)N(Cc3ccc(Cl)cc3)c3ccccc31)C(C#N)=C(N)O2 (configuration not stated),inconclusive: 2.1 nM
13,CCOC(=O)C1=C(C)OC(N)=C(C#N)C1c1cc2c(cc1Br)OCO2 (configuration not stated),inconclusive: 2.8 nM
14,CN1CCc2c(sc(/N=C/c3ccco3)c2C(N)=O)C1,active: 440 nM
15,Cc1nc(N=Nc2cc(S(=O)(=O)O)c3cc([N+](=O)[O-])cc(S(=O)(=O)O)c3c2)c(COP(=O)(O)O)c(C=O)c1O,active: 15 nM
16,Cn1cnc2cc(NS(=O)(=O)c3ccc(Br)cc3)ccc21,inactive
17,Cc1ncn(-c2ccccc2O)c1C,active: 400 nM
18,CCc1cc(=O)oc2cc(C)cc(OC(=O)c3ccco3)c12,inconclusive: 2.3 nM
19,c1ccc(-n2nnnc2SCc2cccc3nsnc23)cc1,inconclusive: 5.9 nM
20,Cc1cc(=O)oc(C)c1C(=O)NCCCN1C(C)CCCC1C (configuration not stated),inconclusive: 1.2 nM
21,N#Cc1nc(-c2ccco2)oc1N1CCN(C(c2ccccc2)c2ccccc2)CC1,inconclusive: 1.8 nM
22,CNC(=O)c1cc2c(=O)n3cccc(C)c3nc2n1C,active: 270 nM

row,SMILES,max dye-equivalent concentration
1,C[n+]1cccc(/C=C\c2ccc3cccc(O)c3n2)c1,inactive
2,C=C1[C@@H](C)C2[C@H](Cc3ccccc3)NC(=O)[C@]23OC(=O)CC[C@H](O)CCC[C@H](C)C/C=C/[C@H]3[C@@H]1O (some centres not stated),inconclusive: 2.8 nM
3,c1cnc(Oc2ccc3oc4ccccc4c3c2)nc1,inconclusive: 1.3 nM
4,CCC(=O)N1CCc2cc(Br)cc(S(=O)(=O)NCCN3CCCCC3CC)c21 (configuration not stated),inconclusive: 8.8 nM
5,CCC1(CC)NC(=O)N(CC(=O)OCn2nnc3ccccc3c2=O)C1=O,inactive
6,CCOc1ccc2[nH]c(=O)c(CN(CCOC)C(=O)N3CCOCC3)cc2c1,active: 240 nM
7,CS(=O)(=O)N1CCC2(CCCN(c3cccc(-c4ccccc4)c3)C2)CC1,inactive
8,COC(=O)c1ccccc1NC(=O)c1ccc2c(c1)C(=O)N(Cc1ccco1)C2=O,active: 60 nM
9,CCOC(=O)C1=C(c2ccccc2)N(C)C(=O)NC1c1ccc(O)c(OC)c1 (configuration not stated),inconclusive: 1.1 nM
10,Cn1c(=O)n(Cc2ccc(Cl)cc2)c(=O)c2c1nc1n2CCN1Cc1ccco1,inconclusive: 1.2 nM
11,Cc1onc(-c2ccccc2Cl)c1C(=O)NCC(=O)O,inconclusive: 5.5 nM
12,CCOC(=O)c1cnc2c(C#N)c(C)nn2c1C,inconclusive: 2.6 nM
13,CCCCC(=O)NC1(C(F)(F)F)C(=O)Nc2c1c(=O)n(C)c(=O)n2C (configuration not stated),inactive
14,Cc1cc(C)n2c(SCCC(C)C)nnc2n1,inconclusive: 1.3 nM
15,O=C(CCN1CCN(c2ccccc2F)CC1)c1ccc(Br)cc1,active: 10 nM
16,CCOc1cc(NC(=O)c2ccco2)c(OCC)cc1NC(=O)CCc1ccccc1OC,inconclusive: 8.7 nM
17,CNc1nc2sc3c(c2c(=O)n1C)CC(C)(C)SC3,active: 120 nM
18,Cn1c(=O)c(-c2ccccc2)nc2cnc(Oc3ccccc3)nc21,inconclusive: 2.3 nM
19,CCOC(=O)c1cc(=O)n2nc(-c3ccccc3F)nc2s1,inconclusive: 3.1 nM
20,Cc1c(C(=O)NCc2ccccn2)oc2ccccc12,inconclusive: 1.1 nM
21,CCOc1ccc(-n2c(Cc3ccccc3)nnc2SCc2c(C)noc2C)cc1,inactive
22,CC(C)CC(=O)N(c1ccc(F)cc1)C1C=CS(=O)(=O)C1 (configuration not stated),inconclusive: 2.4 nM

# Individual results from the entries so far:
# Cc1cc(C)n(-c2ccc(C(=O)C(C#N)c3nc4ccccc4n3C)cc2)n1 (configuration not stated) – max dye-equivalent concentration: active: 13 nM
# Cc1c(C(=O)NCc2ccccn2)oc2ccccc12 – max dye-equivalent concentration: inconclusive: 1.1 nM
# CS(=O)(=O)N1CCC2(CCCN(c3cccc(-c4ccccc4)c3)C2)CC1 – max dye-equivalent concentration: inactive
# Cc1ncn(-c2ccccc2O)c1C – max dye-equivalent concentration: active: 400 nM
# COC(=O)c1ccccc1NC(=O)c1ccc2c(c1)C(=O)N(Cc1ccco1)C2=O – max dye-equivalent concentration: active: 60 nM

# Carrying on:

row,SMILES,max dye-equivalent concentration
1,CCN(CC)S(=O)(=O)c1ccc(-c2nnc(SCc3nnc(-c4ccccc4)o3)o2)cc1,inactive
2,OCCn1c(SC2CCCCC2)nc2ccccc21,inactive
3,CC(C)(C)c1c2c(c(C(C)(C)C)c3c1OCN(Cc1ccccc1)C3)OCN(Cc1ccccc1)C2,inconclusive: 2.9 nM
4,COCCn1nnnc1C(c1ccc(O)c(OC)c1)N1CCc2ccccc2C1 (configuration not stated),inconclusive: 1.7 nM
5,CCOc1ccc(NC(=O)NCCN2C(C)CCCC2C)cc1 (configuration not stated),inconclusive: 1.8 nM
6,Clc1ccc(-c2nn3c(C4COc5ccccc5O4)nnc3s2)cc1 (configuration not stated),inconclusive: 1.8 nM
7,c1coc(CNc2ncnc3ccccc23)c1,inactive
8,CC(C)OCCCn1c(=NC(=O)c2ccncc2)c(C#N)cc2c(=O)n3ccccc3nc21,active: 17000 nM
9,N#Cc1cccc(C(c2nnnn2Cc2ccccc2)N2CCCC2)c1 (configuration not stated),inconclusive: 2.1 nM
10,COc1ccccc1NC(=O)CSc1nc(O)cc(=O)n1C,inconclusive: 4 nM
11,COc1ccc(/C=N\n2nnc3ccccc32)cc1,inconclusive: 1.4 nM
12,O=C(O)/C=C(/C(=O)O)[C@]12CCN3CC4=CCO[C@@H]5CC(=O)N[C@@H]1[C@H]5[C@H]4C[C@H]32,inactive
13,CC(=O)N(Cc1ccco1)C1(C(=O)NC2CCCCC2)CCCCC1,inactive
14,COC(=O)c1c(C(=O)OC)c2ccncn2c1Cl,active: 120 nM
15,CN(C)C(CNC(=O)c1cccc(S(=O)(=O)N2CC3(C)CC2CC(C)(C)C3)c1)c1ccco1 (configuration not stated),inconclusive: 4.2 nM
16,CCOC(=O)c1ccc(COC(=O)c2cc3ccccc3oc2=O)o1,active: 22 nM
17,CCN(CC)S(=O)(=O)c1csc(C(=O)Nc2ccccn2)c1,inconclusive: 2.1 nM
18,COc1cccc(Nc2ncc3nc(C)c(=O)n(Cc4cccs4)c3n2)c1,inconclusive: 1.7 nM
19,COc1ccc(OC)c(C2=NOC(C(=O)NCc3ccccn3)C2)c1 (configuration not stated),inconclusive: 1.3 nM
20,COc1ccc(-c2nc3cnc(Nc4ccccc4)nc3n(C[C@H]3CCCO3)c2=O)cc1,inconclusive: 1.9 nM
21,Cc1cc(N2CCN(C(=O)c3ccco3)CC2)n2nc(-c3cccc(F)c3)cc2n1,inconclusive: 10 nM
